{"source": "PubChem BioAssay AID662", "about": "(National Center for Advancing Translational Sciences (NCATS), 2007)", "note": "Values joined by “and” are separate entries in the source; they are usually repeats but may differ in a detail not shown here. Identical values can stand only once. This is one part of the list. Shown are side measurements of this screen, not its main read-out; they come without a call. Most of these compounds were active or inconclusive in the main read-out, so they are no random draw. Words in brackets tell the shape of the fitted curve; partial curves, single points and poor fits give uncertain potencies."}
{"test": "Cell signaling CRE-BLA (Fsk stim)", "details": "CHO CRE-bla reporter (cAMP response element driving beta-lactamase), forskolin EC10, beta-lactamase ratio; measured here: 460 nm blue channel", "procedure,_shortened": "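Beta-lactamase reporter under a cAMP responsive element in CHO cells; compounds tested in titration series against EC10 NKH 477, 3 h at 37 °C. Read-out: CCF4 FRET ratio 460nm/530nm (excitation 405nm) giving %Activity, fitted to AC50.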"}
{"smiles": "CCN(CCNC(=O)C1CCN(Cc2nc(-c3ccc(Cl)cc3)oc2C)CC1)c1ccccc1", "AC50": "0.0158 µM [falling, full curve, poor fit]"}
{"smiles": "CCC(=O)N1c2ccc(S(=O)(=O)CCC(=O)NC3CCCC3)cc2CC1C", "note": "(stereo not drawn)", "AC50": "0.126 µM [falling, full curve]"}
{"smiles": "O=C(Nc1ccc2nc(-c3cccs3)c(-c3cccs3)nc2c1)N1CCOCC1", "AC50": "12.6 µM [rising, partial curve]"}
{"smiles": "COc1ccccc1-n1c(CNC(=O)c2ccco2)nnc1SCC(=O)Nc1cc(C)ccc1C", "AC50": "12.6 µM [rising, single point]"}
{"smiles": "Cc1cc(C)c2nc(SCC#N)cc(C)c2c1", "AC50": "12.6 µM [rising, single point]"}
{"smiles": "COc1ccc(N2CCN(c3nc4c(c(=O)[nH]c(=O)n4C)n3Cc3ccccc3Cl)CC2)cc1", "AC50": "3.98 µM [rising, full curve, poor fit]"}
{"smiles": "CCCN(CCC)c1nc(C)cc(C(C#N)c2nc3ccccc3o2)n1", "note": "(stereo not drawn)", "AC50": "5.01 µM [rising, partial curve]"}
{"smiles": "CCOC(=O)C1CCN(S(=O)(=O)c2cccc(-c3cn4cccnc4n3)c2)CC1", "AC50": "12.6 µM [falling, single point]"}
{"smiles": "Oc1ccc(Cc2nccc3cc(O)c(O)cc23)cc1O", "AC50": "3.98 µM [rising, single point]"}
{"smiles": "O=C(c1cc2c(s1)-c1ccccc1OC2)N1CCN(c2ccccn2)CC1", "AC50": "7.94 µM [rising, partial curve]"}
{"smiles": "O=C(c1ccc(F)cc1)C(CN1CCOCC1)c1ccccc1", "note": "(stereo not drawn)", "AC50": "3.16 µM [falling, full curve]"}
{"smiles": "C=CC(=O)OCCOCCOCCOCCOC(=O)C=C", "AC50": "12.6 µM [falling, partial curve] and 7.94 µM [falling, full curve]"}
{"smiles": "COc1ccc(/C(CC2(O)C(=O)Nc3ccccc32)=N\\O)cc1", "note": "(stereo not drawn)", "AC50": "0.126 µM [falling, full curve]"}
{"smiles": "COc1ccc(CN(Cc2nc3ccccc3c(=O)[nH]2)C(=O)NC2CCCCC2)cc1", "AC50": "5.01 µM [rising, full curve]"}
{"smiles": "Cc1nnc(NC(=O)CSc2nnc(Cc3ccccc3)n2Cc2ccccc2)s1", "AC50": "12.6 µM [rising, partial curve]"}
{"smiles": "COc1cc(NC(=O)CSc2nccc(C)n2)c(C(=O)O)cc1OC", "AC50": "25.1 µM [falling, single point]"}
{"smiles": "O=c1c(-c2ccc(Cl)cc2)nc2cnc(Nc3ccccc3)nc2n1C1CC1", "AC50": "10 µM [rising, partial curve]"}
{"smiles": "CCC(CC)C(=O)Nc1cc(C(=O)OC)cc(C(=O)OC)c1", "AC50": "25.1 µM [rising, single point]"}
{"smiles": "O=C1C=C(N2CCN(c3ccccn3)CC2)C(=O)c2c(O)ccc(O)c21", "AC50": "3.16 µM [rising, partial curve]"}
{"smiles": "CCOc1ccc(-c2noc(-c3ccncc3)n2)cc1OCC", "AC50": "15.8 µM [rising, partial curve]"}
{"smiles": "Oc1ccc(Cl)cc1Sc1cc(Cl)ccc1O", "AC50": "15.8 µM [falling, partial curve, poor fit]"}
{"smiles": "Cc1cccc(Cn2c(=O)n(Cc3ccco3)c(=O)c3ccccc32)c1", "AC50": "25.1 µM [rising, single point]"}
{"smiles": "CCOc1ccc(CCN2C(=O)CCC2(C)C(=O)NC(C)CC)cc1OCC", "note": "(stereo not drawn)", "AC50": "12.6 µM [rising, partial curve]"}
{"smiles": "Cc1sc2nc(SCC(=O)N(CCO)CCO)n(C3CCCCC3)c(=O)c2c1C", "AC50": "12.6 µM [rising, partial curve]"}
{"smiles": "COc1cccc(Cn2c(=O)c(C)nc3cnc(Nc4cccc(OC)c4)nc32)c1", "AC50": "12.6 µM [rising, partial curve]"}
{"smiles": "c1csc(CNc2nc(-c3ccc4c(c3)OCO4)nc3ccccc23)c1", "AC50": "6.31 µM [rising, partial curve]"}
{"smiles": "COc1ccc(C(=O)c2ccc(N(C)C)cc2)c(OC)c1", "AC50": "0.398 µM [falling, partial curve]"}
{"smiles": "CN(C)c1ccc(NC(=O)CCCc2ccccc2)cc1", "AC50": "10 µM [falling, single point]"}
{"smiles": "O=c1c2ccccc2nnn1CSc1nnc(-c2cccnc2)n1-c1ccccc1F", "AC50": "0.0126 µM [falling, full curve, poor fit]"}
{"smiles": "Cc1cc(C)n2nc(SCc3nc4ccccc4[nH]3)nc2n1", "AC50": "1 µM [rising, partial curve]"}
{"smiles": "CCNc1ncc2nc(-c3ccc(OC)cc3)c(=O)n(Cc3ccc(F)cc3)c2n1", "AC50": "0.794 µM [rising, full curve]"}
{"smiles": "COc1ccc(C(=O)COC(=O)CN2C(=O)C3C4C=CC(C4)C3C2=O)cc1", "note": "(stereo not drawn)", "AC50": "25.1 µM [rising, single point]"}
{"smiles": "CCCn1c(=O)c2[nH]c(C3CCCC3)nc2n(CCC)c1=O", "AC50": "5.01 µM [rising, partial curve]"}
{"smiles": "CC1(C)Cc2ccccc2-c2nnc(SCc3ccc(C#N)cc3)n21", "AC50": "12.6 µM [rising, single point]"}
{"smiles": "COc1ccc(CCNc2oc(COc3ccc(Br)cc3)nc2C#N)cc1OC", "AC50": "10 µM [falling, single point]"}
{"smiles": "O=C(Nc1nc2c(s1)CCCC2)c1ccc2ncsc2c1", "AC50": "10 µM [rising, partial curve]"}
{"smiles": "Cc1ccccc1C(=O)c1cccn1CC(=O)NCC1CCCO1", "note": "(stereo not drawn)", "AC50": "20 µM [rising, single point]"}
{"smiles": "CC(C)Cn1cnc2c(SCc3ccc(Cl)cc3Cl)nc(N)nc21", "AC50": "3.98 µM [rising, partial curve]"}
{"smiles": "COC(=O)c1c(C(=O)OC)c2oc3ccccc3n2c1Cl", "AC50": "12.6 µM [rising, partial curve]"}
{"smiles": "O=C(COc1ccc2c3c(c(=O)oc2c1)CCC3)NC1CCCCC1", "AC50": "25.1 µM [rising, single point]"}
{"smiles": "Cn1c(=O)c(-c2cccs2)nc2cnc(N3CCOCC3)nc21", "AC50": "5.01 µM [rising, partial curve]"}
{"smiles": "Cc1ccc(-c2nn(-c3ccccc3)cc2CN(Cc2ccccc2)C(=O)CCC(=O)O)o1", "AC50": "20 µM [rising, single point]"}
{"smiles": "Cc1ccc(Cn2nnc3c(=O)n(CC(=O)N4CCN(c5ccccc5)CC4)cnc32)cc1", "AC50": "0.00631 µM [falling, full curve]"}
